Measurements as given in PubChem BioAssay AID651898 (Broad Institute, 2012).
Some of the results follow. Further columns of the screen follow, without active or inactive calls.

Experiment: HepG2 hepatoma cell viability loss – plate reader, cherry-pick, two tests, cytotoxicity control, dose response (AID 651898)
Settings: measured here: replicate test 2 max activity; at 6 µM unless noted

Compound | max activity
O=C(Cc1ccccc1)N1CC[C@@H]2[C@H]1c1cc(Br)ccc1N[C@@H]2CO | -7.53% [at 1.6 µM]
O=C(c1cccc(F)c1)N1CC[C@@H]2[C@H]1c1cc(-c3cccc(F)c3)ccc1N[C@@H]2CO | -13.9% [at 0.75 µM]
C[C@@H]1CN([C@@H](C)CO)C(=O)Cc2cc(NC(=O)Cn3cnnn3)ccc2O[C@H]1CN(C)Cc1ccc2c(c1)OCO2 | -7.75% [at 1.6 µM]
CO[C@H]1CN(C)C(=O)c2ccc(NC(C)=O)cc2OC[C@@H](C)N(C(=O)c2ccc(F)cc2)C[C@H]1C | -12.7% [at 3 µM]
O=C(C1CC1)N1CC[C@@H]2[C@H]1c1cc(Br)ccc1N[C@@H]2CO | 39.3% [at 26 µM]
O=C(c1ccncc1)N1CC[C@@H]2[C@@H](CO)Nc3ccc(Br)cc3[C@@H]21 | 5.55% [at 0.8 µM]
CCN1[C@H](C(=O)NCc2ccccc2)[C@@H](CO)[C@@H]2Cn3c(ccc(-c4cccnc4)c3=O)[C@@H]21 | 13.5% [at 3 µM]
O=C(C1CCOCC1)N1CC[C@@H]2[C@H](CO)Nc3ccc(Br)cc3[C@@H]21 | 5.45% [at 0.8 µM]
CN1c2ccc(-c3cccc(F)c3)cc2[C@H]2[C@H](CCN2C(=O)c2ccc3c(c2)OCO3)[C@H]1CO | -11% [at 0.38 µM]
O=C(C[C@H]1C[C@@H]2c3cc(NC(=O)c4cccnc4)ccc3O[C@@H]2[C@@H](CO)O1)NCC(F)(F)F | -9.14% [at 0.195 µM]
O=C(Nc1ccc2c(c1)[C@H]1C[C@@H](CC(=O)N3CCc4ccccc4C3)O[C@@H](CO)[C@H]1O2)c1cccnc1 | -7.45% [at 0.38 µM]
COc1cccc(NC(=O)N2C[C@H](O)COC[C@@H]3O[C@@H](CC(=O)N(C)C)CC[C@H]32)c1 | 13.1%
COc1ccccc1S(=O)(=O)N1CC[C@@H]2[C@H](CO)Nc3ccc(-c4cccc(C#N)c4)cc3[C@@H]21 | 13.8% [at 0.8 µM]
CN1c2ccc(-c3cccc(C#N)c3)cc2[C@H]2[C@H](CCN2C(=O)CC2CC2)[C@H]1CO | 18.4% [at 23.5 µM]
CN(C)C(=O)C[C@@H]1C[C@@H]2c3cc(NC(=O)c4cccnc4)ccc3O[C@@H]2[C@@H](CO)O1 | -7.52% [at 0.8 µM]
COCCNC(=O)C[C@@H]1CC[C@@H]2[C@H](COc3ccc(NC(=O)Nc4cccc(F)c4)cc3C(=O)N2C)O1 | 13%
COC(=O)C[C@@H]1CC[C@@H]2[C@H](COC[C@@H](O)CN2C(=O)Nc2cccc(F)c2)O1 | -6.07% [at 0.8 µM]
CCC(=O)N1CC[C@@H]2[C@H]1c1cc(-c3cccc(F)c3)ccc1N(C)[C@H]2CO | 8.59% [at 0.195 µM]
COCCNC(=O)C[C@@H]1CC[C@@H]2[C@@H](COc3ccc(NC(=O)Nc4cccc(F)c4)cc3C(=O)N2C)O1 | 16.9% [at 0.195 µM]
CCC(=O)N1CC[C@@H]2[C@H]1c1cc(-c3cccc(F)c3)ccc1N(C)[C@@H]2CO | -21% [at 0.38 µM]

Copied from the list.
Under max activity, O=C(C1CC1)N1CC[C@@H]2[C@H]1c1cc(Br)ccc1N[C@@H]2CO has the entry 39.3% [at 26 µM]
Under max activity, CN1c2ccc(-c3cccc(C#N)c3)cc2[C@H]2[C@H](CCN2C(=O)CC2CC2)[C@H]1CO has the entry 18.4% [at 23.5 µM]

Next structures:

Compound | max activity
N#C[C@H]1[C@@H](c2ccccc2)[C@@H](CO)N1C(=O)Nc1cccc(F)c1 | 14.7% [at 12 µM]
C[C@H](CO)N1C[C@H](C)[C@@H](CN(C)Cc2ccc3c(c2)OCO3)Oc2ccc(NC(=O)Cn3cnnn3)cc2CC1=O | -14.3%
O=C(c1ccncc1)N1CC[C@@H]2[C@H](CO)Nc3ccc(Br)cc3[C@@H]21 | 9.17% [at 0.195 µM]
COCC(=O)N1CC[C@@H]2[C@@H](CO)N(C)c3ccc(-c4ccc(F)cc4)cc3[C@@H]21 | 11.1% [at 0.195 µM]
CCNC(=O)[C@@H]1[C@@H](CO)[C@@H]2Cn3c(ccc(-c4cccnc4)c3=O)[C@@H]2N1Cc1ccc2c(c1)OCO2 | 16.2% [at 0.38 µM]
C[C@@H]1CN([C@@H](C)CO)C(=O)c2cc(C#Cc3cccnc3)cnc2O[C@H]1CN(C)S(C)(=O)=O | 16.3% [at 0.8 µM]
CCC(=O)N1CC[C@@H]2[C@@H](CO)N(C)c3ccc(-c4cccc(F)c4)cc3[C@@H]21 | 5.55% [at 1.6 µM]
O=C(C[C@@H]1C[C@@H]2c3cc(NC(=O)c4cccnc4)ccc3O[C@@H]2[C@@H](CO)O1)NCc1cccnc1 | -15% [at 1.6 µM]
CO[C@H]1CN(C)C(=O)c2ccc(NC(C)=O)cc2OC[C@@H](C)N(C(=O)C2CCCCC2)C[C@H]1C | -14.2% [at 0.195 µM]
O=C(c1ccccc1F)N1CC[C@@H]2[C@H]1c1cc(Br)ccc1N[C@@H]2CO | -7.36% [at 1.6 µM]
C/C=C/c1ccc2c(c1)O[C@@H](CN(C)C(=O)c1ccc3c(c1)OCO3)[C@@H](C)CN([C@@H](C)CO)S2(=O)=O | 20.2% [at 0.38 µM]
O=C(N[C@H]1CC[C@@H](CCn2cc(-c3cccnc3)nn2)O[C@H]1CO)c1ccccc1F | -6.22% [at 26 µM]
O=C(Nc1ccc2c(c1)[C@H]1C[C@@H](CC(=O)N3CCc4ccccc4C3)O[C@H](CO)[C@H]1O2)c1cccnc1 | -8.01% [at 6.8 µM]
COc1ccccc1S(=O)(=O)N1CC[C@@H]2[C@H](CO)Nc3ccc(-c4ccccc4)cc3[C@@H]21 | -6.95% [at 23.5 µM]
CN1c2ccc(-c3cccc(F)c3)cc2[C@H]2[C@H](CCN2C(=O)C2CC2)[C@H]1CO | 12.4% [at 0.75 µM]
O=C(C[C@@H]1C[C@@H]2c3cc(NC(=O)c4cccnc4)ccc3O[C@@H]2[C@@H](CO)O1)NCCc1ccccc1 | -15%
CN1c2ccc(-c3cccc(F)c3)cc2[C@H]2[C@H](CCN2C(=O)C2CCOCC2)[C@H]1CO | 8.43% [at 0.38 µM]
O=C(C1CCOCC1)N1CC[C@@H]2[C@H]1c1cc(Br)ccc1N[C@@H]2CO | -6.84% [at 3 µM]
C[C@@H]1CN([C@H](C)CO)C(=O)c2cc(C#Cc3cccnc3)cnc2O[C@H]1CN(C)S(C)(=O)=O | 16.9% [at 0.8 µM]
CNC(=O)C[C@H]1CC[C@@H]2[C@H](COC[C@@H](O)CN2C(=O)Nc2cccc(OC)c2)O1 | -13.9%
